## Small-molecule microarray binding calls

Targets (5′ to 3′):
T1: TPP riboswitch RNA three-way junction, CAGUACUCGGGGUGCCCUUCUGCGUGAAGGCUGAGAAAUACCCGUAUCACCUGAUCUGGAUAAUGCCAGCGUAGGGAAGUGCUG. Hit rate about 0.7% of about 24,000 compounds.
T2: SAM-II riboswitch RNA pseudoknot, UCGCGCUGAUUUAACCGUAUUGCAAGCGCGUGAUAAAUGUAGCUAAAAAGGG. Hit rate about 1% of about 21,000 compounds.
T3: PreQ1 riboswitch RNA pseudoknot, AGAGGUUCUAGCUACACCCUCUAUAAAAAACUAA. From B. subtilis. Hit rate about 0.7% of about 24,000 compounds.

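Compounds were printed on reactive glass slides in duplicate spots, a dye-labelled oligonucleotide was laid over them, and the fluorescence left after washing was read. For the PreQ1, TPP and SAM-II riboswitches the laboratory earlier reported (doi:10.1038/s41467-019-09493-3) 1 µM RNA, 2 h, and a rule that included a mean Z-score above 3 (spot signal-to-noise against the whole library), a score well above that on a control array, and duplicate spots agreeing (coefficient of variation under 100). The data file gives only the calls; its cut-offs may differ, and compounds hitting several targets are kept. A missing hit is not proof of no binding, and a hit is not a measured affinity.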 A compound is marked active if it was called a hit and inactive if it was screened but was not. Compounds were drawn at random from those tested, without regard to their results. A dash means that no call is listed here.

Compound | T1 | T2 | T3
CCC[C@H]1CN(C(=O)Cc2ccc(S(C)(=O)=O)cc2)C[C@@H]1N | inactive | inactive | inactive
NCCc1nc(N2CCC(O)(CN3CCCC3)CC2)c2ccccc2n1 | inactive | inactive | inactive
Br.CN(C)c1n/c(=N/Cc2ccco2)ss1 | inactive | inactive | inactive
Cc1cccc(-c2nc3cc4c(cc3cc2CN2CC(O)C2)CCC4)c1 | inactive | inactive | inactive
COc1ccccc1Nc1ncnc2sc3c(c12)CCCC3 | inactive | inactive | inactive
CCCCn1c(-c2nonc2N)nc2ccccc21 | inactive | inactive | inactive
N#CC1=C(N)OC2=C(C(=O)CCC2)C1c1cccc(Cl)c1 (configuration not stated) | inactive | inactive | inactive
CSc1nc2nc(C)c(-c3ccc(F)cc3)c(N)n2n1 | inactive | - | inactive
Cc1ccc(C)c(NC(=O)CC(=O)N[C@H](CO)COCc2ccccc2)c1 | inactive | inactive | inactive
N=c1n(CCO)c2ccccc2n1Cc1ccc(Cl)cc1 | inactive | inactive | inactive
Cc1ccc(OCc2nc(N)nc(N(C)C)n2)cc1C | inactive | inactive | inactive
O=C(CCc1nc2ccccc2[nH]1)N1C[C@H](O)[C@@H](N2CCOCC2)C1 | inactive | inactive | inactive
CCOc1ccc(CCNc2cc(C)nc3ncnn23)cc1OCC | inactive | inactive | inactive
Cc1cc(C(=O)N2C[C@H](CO)C[C@H](CN3CCCC3)C2)ccc1F | inactive | inactive | inactive
CCSc1nc(CC(=O)N2C[C@H](N)C[C@H]2C(=O)NC)cs1 | inactive | inactive | inactive
CCn1c(=N)n(CC(O)c2cccs2)c2ccccc21 (configuration not stated) | inactive | inactive | inactive
CCOC(=O)C(=O)Cc1nc2ccccc2s1 | inactive | inactive | inactive
O=C(N[C@H]1CCCNC1)c1cn(CC=Cc2ccccc2)nn1 | inactive | inactive | inactive
Cc1cccc(Nc2cc(C(=O)O)nc3ccc(C)cc23)c1 | inactive | inactive | inactive
Nc1n[nH]c(C(=O)NCc2ccccc2-n2ccnc2)n1 | inactive | inactive | inactive
Cc1ccc(N2C(=O)c3cccnc3C2Nc2cccc(C)c2C)cc1 (configuration not stated) | inactive | inactive | inactive
COC(C)c1ccc(-c2ccc(CN3CCNCC3)cc2)cc1 (configuration not stated) | inactive | inactive | inactive
Cc1ccc(Nc2nc(C(=O)N3CCN(Cc4ccccc4)CC3)cs2)cc1 | inactive | inactive | inactive
CCn1c(N)nc2cc(C(=O)N3CCc4nc(C)[nH]c(=O)c4CC3)cnc21 | inactive | inactive | inactive
CCc1ccc(Nc2cc(-n3nc(C)cc3C)ncn2)cc1 | inactive | inactive | inactive
COc1ccccc1NC(c1nnc(-c2ccccc2)o1)c1ccccc1F (configuration not stated) | inactive | inactive | inactive
Nc1ccc(Oc2cccnc2)cc1 | inactive | inactive | inactive
CCN(CC)C(=O)Cn1ccc(NC(C)=O)nc1=O | inactive | inactive | inactive
O=C1c2ccccc2NC(C=Cc2ccc([N+](=O)[O-])cc2)N1c1ccccc1 (configuration not stated) | inactive | inactive | inactive
COC(=O)c1cc(Nc2cc(C)c3ccc(O)cc3n2)cc(C(=O)OC)c1 | inactive | inactive | inactive
CC(=O)Nc1nc2ccc(N)cc2s1 | inactive | inactive | inactive
Cc1c(S(=O)(=O)c2ccccc2)c(N)n(C2CCCCC2)c1C | inactive | inactive | inactive
CCC1=[N+]([O-])[N+]([O-])=C(c2ccccc2)/C1=N/O | inactive | inactive | inactive
CCOC(=O)Nc1ccc2nc(Sc3ccc(Cl)cc3)sc2c1 | inactive | inactive | inactive
Cc1nc([N+](=O)[O-])cn1CC(=O)NCCO | inactive | inactive | inactive
Cc1cnn(CCC(=O)N2C[C@@H](CN3CCCCC3)[C@@H](CO)C2)c1 | inactive | inactive | inactive
CCNc1nc(N(C)C)nc(-n2cnc(SCc3ccc(Cl)cc3)n2)n1 | inactive | - | inactive
CC(C)CCSc1nnc2nc(O)cc(N)n12 | inactive | inactive | inactive
CN(Cc1csc(-c2cccs2)n1)Cc1cccnc1N | inactive | inactive | inactive
O=C(Cn1nc(-c2ccccc2)n(-c2ccccc2)c1=O)N1C[C@@H]2C[C@H]1CN2 | inactive | inactive | inactive
N=c1c2c(-c3ccccc3)c(-c3ccccc3)oc2ncn1CCO | inactive | inactive | inactive
O=C(COc1ccc(F)cc1F)N1C[C@H](CO)C[C@H](CN2CCOCC2)C1 | inactive | inactive | inactive
C(=C\CSc1ccccn1)/CSc1ccccn1 | inactive | inactive | inactive
CCc1cnc(C)nc1N1CCC(NC(c2cccc(C)n2)C2CC2)CC1 (configuration not stated) | inactive | inactive | inactive
O=C(NCC1(c2ccccc2F)CCCC1)C1CC2(CCNCC2)CN1 (configuration not stated) | inactive | inactive | inactive
CCCc1nnc(N2CCC(O)(CO)CC2)o1 | inactive | inactive | inactive

6 of the entries, repeated:

| Compound | T1 | T2 | T3 |
|---|---|---|---|
| `CCC1=[N+]([O-])[N+]([O-])=C(c2ccccc2)/C1=N/O` | inactive | inactive | inactive |
| `CCc1cnc(C)nc1N1CCC(NC(c2cccc(C)n2)C2CC2)CC1` (configuration not stated) | inactive | inactive | inactive |
| `Cc1ccc(N2C(=O)c3cccnc3C2Nc2cccc(C)c2C)cc1` (configuration not stated) | inactive | inactive | inactive |
| `Cc1ccc(C)c(NC(=O)CC(=O)N[C@H](CO)COCc2ccccc2)c1` | inactive | inactive | inactive |
| `O=C1c2ccccc2NC(C=Cc2ccc([N+](=O)[O-])cc2)N1c1ccccc1` (configuration not stated) | inactive | inactive | inactive |
| `CCOC(=O)C(=O)Cc1nc2ccccc2s1` | inactive | inactive | inactive |

Calls as published in the ROBIN set (doi:10.1002/anie.202211358).